The chains are these.
B1: D2 IgG (antibody, V domains shown)
VH: DVKLQESGPGLVKPSQSLSLTCSVTGYSITSGYYWNWIRQFPGNKLEWMGYIRYDGSNNYNPSLKNRISITRDTSKNQFFLKLNSVTTEDTASYYCARDRDSSYYFDYWGQGTALTVSS
VL: DIVMTQSSSYLSVSLGGRVTITCKASDHINNWLAWYQQKPGNAPRLLISDTTSLETGVPSRFSGSGSGKDYTLSITSLQTEDVATYYCQQYWSAPPTFGGGTKLEIK
B2: C16 IgG (antibody, V domains shown)
VH: EVQLQQSGAELARPGASVQMSCKAFGYTFTNYTMHWVRQRPGQGLEWIGFINPSSDYTNYNQKFKDKATLSADKSSSTAYMQLSSLTSEDSAVYYCARRIFYNGRTYAAMDYWGQGTSVTVSS
VL: DIVMTQSPASLAVSLGQRATISCRASKSVSSSGYSYMHWYQQKPGQPPKLLIYLASNLESGVPARFSGSGSGTDFTLNIHPVEEEDAATYYCQHSRELPLTFGAGTKLELK
B3: C4 IgG (antibody, V domains shown)
VH: DVKLQESGPGLVKPSQSLSLTCTVTGYSITSDYAWNWIRQFPGNKLEWMGYISYSVGTRYNPSLKSRISITRDTSKNQFFLLLKSVTNEDTATYFCARKGEYGFAYWGQGTLVTVSA
VL: B2 VL with S31T
B4: C7 IgG (antibody, V domains shown)
VH: QVQLVETGGGLVQPKGSLKLSCAASGFTFNTNAMNWVRQAPGKGLEWVARIRSKSNNYATYYADSVKDRFTISRDDSQSLLYLQMNNLKTEDTAMYYCVYGRSYGGLSYWGQGTLVTVSA
VL: B2 VL
B5: C24 IgG (antibody, V domains shown)
VH: EVKLVESGGGLVQPKGSLKLSCAASGYTFNTYAMNWVRQAPGKGLEWVARIRSKSNNYTTYYADSVKDRFTISRDDSQSMLYLQINNLKTEDTAMYYCVGQILYYYVGSPAWFAYWGQGTLVTVSA
VL: B2 VL with S31T, Y53F, L100W, A104G, L110I
B6: C14 IgG (antibody, V domains shown)
VH: B4 VH with Q1E, Q3K, T7S, N56D, Q78P, L80M, S108G
VL: B2 VL with M4L, S31T, M37V
B7: C16 IgG-HRP conjugate (antibody, V domains shown)
VH: B2 VH
VL: B2 VL

Amino acid sequences for entries named in this document (tags omitted). A change or cut given only in a name is not applied to a line headed by its entry. Residues count along the entry.
UniProt P60880, 1-197: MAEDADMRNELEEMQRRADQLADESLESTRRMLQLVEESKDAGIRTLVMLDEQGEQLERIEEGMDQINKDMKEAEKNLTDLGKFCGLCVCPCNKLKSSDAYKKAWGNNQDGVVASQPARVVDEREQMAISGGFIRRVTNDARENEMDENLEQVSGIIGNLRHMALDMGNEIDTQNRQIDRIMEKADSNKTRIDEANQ
UniProt P60880, whole entry: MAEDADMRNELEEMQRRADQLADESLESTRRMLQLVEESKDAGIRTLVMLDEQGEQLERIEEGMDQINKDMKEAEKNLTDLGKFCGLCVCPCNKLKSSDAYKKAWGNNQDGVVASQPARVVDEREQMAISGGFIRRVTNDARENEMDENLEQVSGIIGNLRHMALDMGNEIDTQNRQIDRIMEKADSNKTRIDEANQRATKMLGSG
UniProt P60879, 1-197: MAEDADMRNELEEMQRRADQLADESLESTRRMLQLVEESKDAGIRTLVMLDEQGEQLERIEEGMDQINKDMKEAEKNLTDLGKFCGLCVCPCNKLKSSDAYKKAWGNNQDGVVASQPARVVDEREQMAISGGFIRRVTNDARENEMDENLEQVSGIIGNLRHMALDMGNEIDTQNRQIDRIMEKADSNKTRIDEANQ

Where a chain is given by its changes, count along the chain named. No constants are given. Whether binding was seen depends on the method and setting. Some entries that bind do so weakly or less than the wild type.

One assay concerns the target recombinant GST-SNAP25FL (UniProt P60880). As to the kind of experiment: Western blot, hybridoma culture supernatant 1:100 on 0.5 ug GST-SNAP25FL. For orientation: Immunoblotting shows a protein as a band on a membrane.
With B1, the binding entry is “binds”.

The next assay deals with recombinant GST-SNAP25197 (UniProt P60880). As to the kind of experiment: Western blot, hybridoma culture supernatant 1:100 on 0.5 ug GST-SNAP25197.
Regarding B2, the binding entry is reported as “binds”.
Regarding B3, the binding entry is on record as “binds”.
For B4, the binding entry is “binds”.
Turning to B5, the binding result is listed as “binds”.
For B6, the binding result is listed as “binds”.

Another assay concerns the target endogenous SNAP25197 in total cell lysate of BoNT/A-treated N2-42F cells (mouse) (UniProt P60879). In words: sandwich ELISA of N2-42F lysates, B4 IgG as capture, C16 IgG-HRP as detection. In general terms: ELISA stands for enzyme-linked immunosorbent assay.
As for B7, the binding result is listed as “binds”.

The target of the next assay is recombinant GST-SNAP25197 (UniProt P60880). As to the kind of experiment: BLI (Octet Red96), raw curves; example: anti-GST biosensor loaded with GST-SNAP25197, serially diluted IgG as analyte; the legend says IgG on AMC biosensors. In general terms: In BLI a coated tip is dipped into the sample, and binding shifts an interference pattern.
In the case of B2, the binding entry is listed as “binds”.
In the case of B3, the binding result is “binds”.
With B4, the binding entry is listed as “binds”.
Still for that read-out and setting: as for B5, the entry is “binds”.

Another assay shares this target. In words: BLI (Octet Red96), aligned curves; example: anti-GST biosensor loaded with GST-SNAP25197, serially diluted IgG as analyte; the legend says IgG on AMC biosensors.
With B2, the binding entry was “binds”.
On the same count and under the same terms, as for B3, the entry is “binds”; as for B4, “binds”.
With B5, the binding entry was “binds”.

These data come from patent publication US20200173986A1.
